Data as given in publication doi:10.1101/325811.
These are yes or no findings as the source states them, for the method shown. In cells and extracts the contact can be indirect. Some binding calls cover weakened binding; strength is not graded here.

Amino acid sequences for entries named in this document (tags omitted). A change or cut given only in a name is not applied to a line headed by its entry.
UniProt Q99525: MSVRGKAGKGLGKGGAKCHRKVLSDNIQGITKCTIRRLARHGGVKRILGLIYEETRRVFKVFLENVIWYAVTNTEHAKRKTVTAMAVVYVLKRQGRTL
UniProt P06748: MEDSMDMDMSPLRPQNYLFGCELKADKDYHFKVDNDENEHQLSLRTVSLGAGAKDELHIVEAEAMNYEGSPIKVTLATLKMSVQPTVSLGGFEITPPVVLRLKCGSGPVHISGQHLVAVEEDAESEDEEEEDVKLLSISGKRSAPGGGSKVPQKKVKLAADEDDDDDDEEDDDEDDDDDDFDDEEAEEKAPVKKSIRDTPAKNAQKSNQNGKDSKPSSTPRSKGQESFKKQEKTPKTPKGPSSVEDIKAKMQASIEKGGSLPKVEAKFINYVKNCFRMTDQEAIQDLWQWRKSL

Target: FLAG-tagged H4G (human) (UniProt Q99525)
Test: co-IP

binding: binds
Substance: NPM1 (nucleophosmin/B23) (from UniProt P06748 1-294)
